Laboratory results: PubChem BioAssay AID686938 (Drosophila RNAi Screening Center, 2013)

- Purpose: 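Looking for CRAC channel components and the factors controlling them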 (primary screen)
- Cells: Drosophila S2R+ cells
- Reagent: long dsRNA against Drosophila genes, about 0.25 µg dsRNA per well, roughly 10,000 cells
- Duration: 5 days of knock-down before the calcium assay
- Conditions: thapsigargin (SERCA pump blocker) to empty calcium stores; entry signal taken 4 min after adding it
- Read-out: 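Per-well fluo-4 fluorescence in two replicates, unnormalised, measured in resting cells and 4 min after store depletion by the SERCA blocker thapsigargin; ratio of the two present in few wells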
- Scale: calcium entry signal: higher = stronger calcium signal after store depletion; entry to resting ratio: higher = more calcium entry relative to resting level; resting calcium signal: higher = higher resting calcium signal
- Rule for the call: 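Called when the plate z-score of the entry-to-rest ratio, mean of duplicates, falls below −3; wells with low overall dye signal (Fmax z below −2) or more than five off-targets excluded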
- Meaning of the calls: active = strongly reduced calcium entry; inactive = no strong reduction
In all, the deposit lists about 23,000 reagents; below is a random part of those with a known target gene and a result. Over the whole deposit, 75 (0.33%) got an active call. 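Raw plate signals without normalisation; calls rest on plate z-scores that were not deposited; ratio present for only 364 wells.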 A number with no mark means an inactive call. No sequences are given here. The record does not give: the dose of the treatment.

predicted target | amplicon | calcium entry signal, replicate 1 (fluorescence units) | calcium entry signal, replicate 2 (fluorescence units) | entry to resting ratio | resting calcium signal, replicate 1 (fluorescence units) | resting calcium signal, replicate 2 (fluorescence units)
pnt | DRSC17028 | 3.29e7 | 4.07e7 | – | 2.27e7 | 2.29e7
pnt | DRSC23204 | 2.97e7 | 3.76e7 | – | 1.76e7 | 2.24e7
fsd | DRSC06166 | 2.25e7 | 4.04e7 | – | 1.09e7 | 1.56e7
Men | DRSC12924 | 3.67e7 | 3.85e7 | – | 2.18e7 | 1.96e7
Men | DRSC16738 | 3.78e7 | 5.43e7 | – | 1.87e7 | 2.69e7
Men | DRSC22694 | 2.73e7 | 2.81e7 | – | 1.42e7 | 1.13e7
Coop | DRSC06604 | 3.97e7 | – | – | 1.94e7 | –
CG1701 | DRSC06641 | 3.49e7 | 3.22e7 | – | 1.59e7 | 2.13e7
CG33630 | DRSC14546 | 2.91e7 | 2.24e7 | – | 1.61e7 | 1.31e7
Gr23a | DRSC00410 | 3.75e7 | 3.68e7 | – | 1.74e7 | 1.64e7
CaBP1 | DRSC01984 | 3.40e7 | – | – | 1.89e7 | –
CG14629 | DRSC18476 | 3.78e7 | 4.94e7 | 1.8 | 2.06e7 | 2.23e7
CG43138 | DRSC17527 | 2.74e7 | 3.61e7 | – | 1.19e7 | 1.45e7
CG8072 | DRSC10960 | 3.57e7 | 3.77e7 | – | 1.85e7 | 1.65e7
CG3603 | DRSC18317 | 5.10e7 | 6.36e7 | 2.2 | 2.32e7 | 2.53e7
C15 | DRSC13495 | 5.75e7 | 3.04e7 | – | 2.41e7 | 1.39e7
C15 | DRSC14169 | 4.31e7 | 3.80e7 | – | 5.76e7 | 1.73e7
Gle1 | DRSC06485 | 4.39e7 | 4.81e7 | – | 1.77e7 | 2.11e7
ubl | DRSC04998 | 2.43e7 | 2.68e7 | – | 1.27e7 | 1.18e7
egg | DRSC04119 | 3.84e7 | – | – | 1.90e7 | –
egg | DRSC22534 | 4.12e7 | 3.22e7 | – | 2.04e7 | 1.25e7
Nox | DRSC06596 | 5.46e7 | 5.31e7 | – | 2.25e7 | 2.59e7
Nox | DRSC06857 | 6.10e7 | 4.93e7 | – | 2.30e7 | 2.21e7
srw | DRSC08201 | 3.01e7 | 3.23e7 | – | 1.70e7 | 1.46e7

Laid out differently: results already given
{"predicted target":"CG43138","amplicon":"DRSC17527","calcium entry signal, replicate 1 (fluorescence units)":2.74e7,"calcium entry signal, replicate 2 (fluorescence units)":3.61e7,"resting calcium signal, replicate 1 (fluorescence units)":1.19e7,"resting calcium signal, replicate 2 (fluorescence units)":1.45e7}
{"predicted target":"CG8072","amplicon":"DRSC10960","calcium entry signal, replicate 1 (fluorescence units)":3.57e7,"calcium entry signal, replicate 2 (fluorescence units)":3.77e7,"resting calcium signal, replicate 1 (fluorescence units)":1.85e7,"resting calcium signal, replicate 2 (fluorescence units)":1.65e7}
{"predicted target":"CG3603","amplicon":"DRSC18317","calcium entry signal, replicate 1 (fluorescence units)":5.10e7,"calcium entry signal, replicate 2 (fluorescence units)":6.36e7,"entry to resting ratio":2.2,"resting calcium signal, replicate 1 (fluorescence units)":2.32e7,"resting calcium signal, replicate 2 (fluorescence units)":2.53e7}
{"predicted target":"C15","amplicon":"DRSC13495","calcium entry signal, replicate 1 (fluorescence units)":5.75e7,"calcium entry signal, replicate 2 (fluorescence units)":3.04e7,"resting calcium signal, replicate 1 (fluorescence units)":2.41e7,"resting calcium signal, replicate 2 (fluorescence units)":1.39e7}
